Measured values as given in publication PMC11264951.
Results are given in words; binding and its absence hold for the method and conditions named. Binding seen in cells or lysates may run through a third protein.

By UniProt entry, the sequences of proteins in these tests, tags left out.
UniProt Q8JZQ9: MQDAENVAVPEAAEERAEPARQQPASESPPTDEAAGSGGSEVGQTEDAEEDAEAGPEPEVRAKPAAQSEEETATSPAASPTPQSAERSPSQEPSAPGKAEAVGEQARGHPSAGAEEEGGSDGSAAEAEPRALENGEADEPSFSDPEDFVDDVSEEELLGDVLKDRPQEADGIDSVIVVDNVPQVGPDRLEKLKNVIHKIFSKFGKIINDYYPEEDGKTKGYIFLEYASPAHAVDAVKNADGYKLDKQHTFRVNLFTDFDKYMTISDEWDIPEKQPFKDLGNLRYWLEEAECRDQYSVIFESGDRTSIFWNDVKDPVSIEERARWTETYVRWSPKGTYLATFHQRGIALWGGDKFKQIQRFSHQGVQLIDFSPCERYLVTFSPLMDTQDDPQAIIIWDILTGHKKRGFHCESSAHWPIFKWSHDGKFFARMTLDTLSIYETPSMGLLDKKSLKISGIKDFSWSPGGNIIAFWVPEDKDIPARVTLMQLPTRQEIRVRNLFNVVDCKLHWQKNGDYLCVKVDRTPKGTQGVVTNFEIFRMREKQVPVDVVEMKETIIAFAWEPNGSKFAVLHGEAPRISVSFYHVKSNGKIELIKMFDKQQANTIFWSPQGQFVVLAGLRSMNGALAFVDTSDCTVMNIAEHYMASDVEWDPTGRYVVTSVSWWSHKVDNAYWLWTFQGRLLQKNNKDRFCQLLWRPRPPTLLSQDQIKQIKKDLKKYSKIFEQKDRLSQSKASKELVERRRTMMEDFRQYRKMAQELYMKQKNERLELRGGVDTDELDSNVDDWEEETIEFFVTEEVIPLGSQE

Target: T1, methyltransferase-like protein 16 (METTL16) (mouse (endogenous in P10 testes)) (UniProt Q9CQG2)
T1 sequence: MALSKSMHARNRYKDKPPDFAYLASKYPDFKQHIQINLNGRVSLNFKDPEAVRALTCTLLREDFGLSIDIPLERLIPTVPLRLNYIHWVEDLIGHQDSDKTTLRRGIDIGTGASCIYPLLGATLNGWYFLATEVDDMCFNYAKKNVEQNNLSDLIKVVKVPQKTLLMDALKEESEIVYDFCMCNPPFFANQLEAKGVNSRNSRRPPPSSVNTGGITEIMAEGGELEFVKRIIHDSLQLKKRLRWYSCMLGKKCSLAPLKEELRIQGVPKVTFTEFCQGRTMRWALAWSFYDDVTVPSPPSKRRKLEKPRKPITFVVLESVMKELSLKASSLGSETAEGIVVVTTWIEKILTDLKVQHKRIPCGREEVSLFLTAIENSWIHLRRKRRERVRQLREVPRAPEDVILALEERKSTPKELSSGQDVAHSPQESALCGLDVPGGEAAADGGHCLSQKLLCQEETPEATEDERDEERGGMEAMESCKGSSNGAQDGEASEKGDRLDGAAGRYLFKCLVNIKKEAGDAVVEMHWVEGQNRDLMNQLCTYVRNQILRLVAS
Experiment: co-IP; Co-IP applied to the mouse testes; told only in the discussion, no figure cited

eIF3B (from UniProt Q8JZQ9 1-803)
binding: no binding
